# Data: publication PMC9561370
# Amino acid sequences for entries named in this document (tags omitted).
# UniProt P20263, whole entry: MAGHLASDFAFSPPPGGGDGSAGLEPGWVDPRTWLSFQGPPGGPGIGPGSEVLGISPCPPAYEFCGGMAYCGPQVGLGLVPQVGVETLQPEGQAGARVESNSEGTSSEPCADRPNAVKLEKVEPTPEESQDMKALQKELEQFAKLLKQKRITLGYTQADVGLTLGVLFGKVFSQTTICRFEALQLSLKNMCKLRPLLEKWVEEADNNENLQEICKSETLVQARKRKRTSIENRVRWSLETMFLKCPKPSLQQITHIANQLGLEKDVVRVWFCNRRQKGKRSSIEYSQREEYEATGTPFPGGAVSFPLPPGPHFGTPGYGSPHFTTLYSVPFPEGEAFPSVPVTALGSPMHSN
# Construct, isoform or probe ends are uncertain for at least one entry. At least one verdict rests on a figure or table, not on a statement of the authors.
# Target: Oct4 (Mus musculus) (UniProt P20263)
# Assay: competition with a labelled probe
# Conditions: 9-90 nM competitor vs 9 nM ESRRB nucleosome, 67.5 nM Oct4, 5 min; 25 mM HEPES pH 7.6, 50 mM NaCl, 0.5 mM EDTA, 1 ug/ul BSA, 0.8 mM DTT, 10% glycerol, 25 C, 1 h; 20 nM nucleosome, 0.05-0.4 uM Oct4; recombinant protein; protein details: pOPIN-cHis, 3C protease cleaved on TALON column
sequence,measurement,value
AAGTGATAGTTATGCAGAGCGAATGGAGGG (double strand) [ESRRB specific competitor oligo],binding result,binds
